Experimental data taken from publication PMC8857481.
These are yes or no findings as the source states them, for the method shown. In cells and extracts the contact can be indirect. Binding calls can cover weak binding; strength is not graded here.

Biological target: FLAG-METTL5-WT (human)
Assay: co-IP; anti-FLAG M2 beads in clarified lysate of transfected HeLa cells, 1 h at 4 °C; 50 mM Tris pH 7.4, 150 mM NaCl, 10% glycerol, 1.5 mM MgCl2, 0.5 mM EDTA, 0.2% NP-40, 1 mM DTT; three washes; Western blot with anti-FLAG and anti-TRMT112

B1: TRMT112 (protein, UniProt Q9UI30 1-125)
chain: MKLLTHNLLSSHVRGVGSRGFPLRLQATEVRICPVEFNPNFVARMIPKVEWSAFLEAADNLRLIQVPKGPVEGYEENEEFLRTMHHLLLEVEVIEGTLQCPESGRMFPISRGIPNMLLSEEETES
B1 was tested, and the binding was “binds”.
